Reference: paper doi:10.1101/2025.04.17.649455
Results are given in words; binding and its absence hold for the method and conditions named. Binding seen in cells or lysates may run through a third protein. These calls come from enrichment with a bait or labelling near it, and not all partners need be listed. For some assays here: Tags and fused reporters may be left off the sequences shown. Blank lines part the entries; values can stand above or below the binder they belong to.

Assays:
[1] = biological target: BLTP2-GFP (bridge-like lipid transfer protein 2) (UniProt Q14667); assay: affinity purification with mass spectrometry
[2] = biological target: T1, BLTP2-1703-1901-GST (UniProt Q14667); assay: affinity purification with mass spectrometry
T1 sequence: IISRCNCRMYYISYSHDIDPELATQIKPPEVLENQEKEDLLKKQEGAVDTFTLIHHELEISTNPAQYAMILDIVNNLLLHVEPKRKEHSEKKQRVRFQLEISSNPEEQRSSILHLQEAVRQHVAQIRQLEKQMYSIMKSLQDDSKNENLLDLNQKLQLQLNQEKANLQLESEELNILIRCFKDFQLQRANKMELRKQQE

- binding [1]: binds
B1: endogenous SCAMP3 (HEK293 cells) (protein, UniProt O14828 1-347)
chain: MAQSRDGGNPFAEPSELDNPFQDPAVIQHRPSRQYATLDVYNPFETREPPPAYEPPAPAPLPPPSAPSLQPSRKLSPTEPKNYGSYSTQASAAAATAELLKKQEELNRKAEELDRRERELQHAALGGTATRQNNWPPLPSFCPVQPCFFQDISMEIPQEFQKTVSTMYYLWMCSTLALLLNFLACLASFCVETNNGAGFGLSILWVLLFTPCSFVCWYRPMYKAFRSDSSFNFFVFFFIFFVQDVLFVLQAIGIPGWGFSGWISALVVPKGNTAVSVLMLLVALLFTGIAVLGIVMLKRIHSLYRRTGASFQKAQQEFAAGVFSNPAVRTAAANAAAGAAENAFRAP

- binding [2]: binds
B2: endogenous SCAMP3 (mouse kidney) (protein, UniProt O35609 1-349)
chain: MAQSRDTGNPFPDSGELDNPFQDPAVIQHRPSQQYATLDVYNPFENREPPPAYEPPAPAPAPLPPPSAPSVQSSRKLSPTEPRNYGSYSTQASAAAATAELLKKQEELNRKAEELDRRERELQHVALGGAGTRQNNWPPLPSFCPVKPCFFQDISMEIPQEFQKTVSTMYYLWMCSTLALLLNFFACLARFCVDTGSGSGFGLSMLWLLLFTPCSFVCWYRPMYKAFRSDSSFNFFVFFFIFFVQDVFFVLQAIGIPGWGFSGWVTALVVVGSKPAVAVLMLLVALLFTGIAVLGIVMLKRIHSLYRQTGASFQKAQQEFAAGVFSNPAVRTAAANAAAGAAENAFRAP
